No constants are given. Whether binding was seen depends on the method and setting. For some of these results: Binding calls can cover weak binding; strength is not graded here.
What was measured:
[1] = target: DDR1 ECD fragment with deletion of DS domain (Homo sapiens (Human)); test: ELISA, ECDΔDS-His coated at 2 µg/ml, antibody titrated
[2] = target: DDR1 ECD fragment with deletion of DS domain (Homo sapiens (Human)); test: ELISA, domain deletion protein coated at 2 ug/ml
[3] = target: EJXM-His; test: ELISA, EJXM-His coated, huDDR1-9 titrated
[4] = target: DDR1 ECD fragment with deletion of DS domain (Homo sapiens (Human)); test: ELISA, domain deletion protein coated at 2 µg/ml

| binding [1] | binding [2] | binding [4] | Binder | binding [3] |
| --- | --- | --- | --- | --- |
| binds | binds | – | DDR1-9 (antibody, V domains shown, Rabbit variable domains; also called anti-huDDR1 antibody #9; DDR1-9K/DDR1-9H) VH: QSLEESGGRLVTPGTPLTLTCTASGFSLNRYYMLWVRQAPGEGLEWIGTISYGDTTYYASWAKGRFTISKTSTTVDLKMTSPTTEDTATYFCARADTGDNGYLGLQLWGPGTLVTVSS VL: ELVMTQTPASVEAAVGGTVTIKCQASQSIGSVLAWYQQKPGQRPKLLISGVFDLASGVPSRFKGSGSGTEFTLTISDLECADAATYYCQYIPYGSSPFGGGTEVVVK | – |
| – | binds | binds | DDR1-9Hu-Ab1 (antibody, V domains shown, Humanized form of DDR1-9; also called DDR1-9hu-Abl; humanized DDR1-9hu antibody) VH: QVQLVESGGRVVQPGRSLRLSCTASGFSLNRYYMLWVRQAPGKGLEWIGTISYGDTTYYASWAKGRFTISRDNSKNTLYLQMNSLRAEDTAVYYCARADTGDNGYLGLQLWGQGTLVTVSS VL: DIQMTQSPSSVSASVGDRVTITCQASQSIGSVLAWYQQKPGKAPKLLISGVFDLASGVPSRFSGSGSGTDFTLTISSLQPEDFATYYCQYIPYGSSPFGGGTKVEIK | no binding (tested: 10000 ng/mL (4 on the log10 axis)) |
| binds | binds | – | DDR1-14 (antibody, V domains shown, Rabbit variable domains; also called anti-huDDR1 antibody #14; DDR1-14K/DDR1-14H) VH: QSVKESGGRLVTPGTPLTLTCTVSGIDLSYYAMSWVRQAPGKGLEYIGIINGRGDTGYATWAKGRFTISKTSTTVDLRITSPTIEDTATYFCAREDSAIPFIVGNYYGMDLWGPGTLVTVSS VL: ELDMTQTPASVSEPVGGTVTIKCQASQSISSYLAWYQQKPGQPPKRLIFEASTLASGVPSRFSGSGSGTDFTLTISDLECADAATYYCQNNNGFSGSNFNNFGGGTEVEIK | – |

— patent US20230235078A1 (University of Texas, published 2023)
